Test results published in PMC4749569, “Atomic structure of the 26S proteasome lid reveals the mechanism of deubiquitinase inhibition” (eLife, 2016).
These are yes or no findings as the source states them, for the method shown. Some results given as binding are weak or reduced against the parent protein; the word gives no strength. One block for each molecule: values may come before it.

Protein sequences, listed by entry. Tags and fused reporters are not part of them.
UniProt P43588: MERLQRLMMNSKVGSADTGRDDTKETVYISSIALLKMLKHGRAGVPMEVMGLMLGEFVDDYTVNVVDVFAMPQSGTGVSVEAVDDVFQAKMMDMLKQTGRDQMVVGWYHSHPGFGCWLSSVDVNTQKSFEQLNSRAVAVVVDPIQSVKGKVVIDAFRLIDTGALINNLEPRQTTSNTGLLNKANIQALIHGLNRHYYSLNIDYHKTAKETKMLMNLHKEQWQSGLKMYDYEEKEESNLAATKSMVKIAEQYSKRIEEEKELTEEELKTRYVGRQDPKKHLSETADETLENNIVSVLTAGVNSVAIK

Legend:
[1] = target: T1, Rpn8 (S. cerevisiae (yeast)) (UniProt Q08723); assay: cryo-EM structure; isolated recombinant yeast lid (nine subunits co-expressed in E. coli, purified as one complex), ~5 uM in FLAG buffer (50 mM HEPES, pH7.6, 100 mM NaCl, 100 mM KCl) with 1.5 mM TCEP and 0.05% NP-40; 3.5 Å; both purified
T1 sequence: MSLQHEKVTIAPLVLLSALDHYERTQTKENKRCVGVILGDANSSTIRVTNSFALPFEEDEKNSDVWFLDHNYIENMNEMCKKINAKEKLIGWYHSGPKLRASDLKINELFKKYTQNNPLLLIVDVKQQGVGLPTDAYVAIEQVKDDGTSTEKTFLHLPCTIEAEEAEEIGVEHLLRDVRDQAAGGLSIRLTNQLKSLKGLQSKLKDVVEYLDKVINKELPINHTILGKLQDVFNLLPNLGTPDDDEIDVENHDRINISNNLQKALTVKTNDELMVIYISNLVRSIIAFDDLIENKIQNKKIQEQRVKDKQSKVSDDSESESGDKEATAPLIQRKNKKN

[2] = target: T2, Rpn9 (S. cerevisiae (yeast)) (UniProt Q04062); assay: as above
T2 sequence: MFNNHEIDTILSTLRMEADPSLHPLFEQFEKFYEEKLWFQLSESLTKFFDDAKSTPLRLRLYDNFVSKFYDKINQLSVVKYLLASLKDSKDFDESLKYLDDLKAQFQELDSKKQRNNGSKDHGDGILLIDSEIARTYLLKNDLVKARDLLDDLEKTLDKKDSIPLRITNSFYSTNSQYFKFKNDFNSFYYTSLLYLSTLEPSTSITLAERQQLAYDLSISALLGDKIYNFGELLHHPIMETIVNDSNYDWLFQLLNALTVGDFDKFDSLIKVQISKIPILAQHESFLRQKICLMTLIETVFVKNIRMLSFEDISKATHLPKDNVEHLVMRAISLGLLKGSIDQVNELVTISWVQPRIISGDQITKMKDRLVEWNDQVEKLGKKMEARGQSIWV

[3] = target: T2, Rpn9 (S. cerevisiae (yeast)); assay: negative-stain EM; purified wild-type and mutant lid, ~50 nM in FLAG buffer (50 mM HEPES, pH7.6, 100 mM NaCl, 100 mM KCl), 2% uranyl formate; 2D class averages and 3D reconstructions at 19.6-27.3 Å; both purified
[4] = target: Rpn11 (S. cerevisiae (yeast)) (UniProt P43588); assay: cryo-EM structure; isolated recombinant yeast lid (nine subunits co-expressed in E. coli, purified as one complex), ~5 uM in FLAG buffer (50 mM HEPES, pH7.6, 100 mM NaCl, 100 mM KCl) with 1.5 mM TCEP and 0.05% NP-40; 3.5 Å; both purified
[5] = target: Rpn11 (S. cerevisiae (yeast)) (UniProt P43588); assay: negative-stain EM; purified wild-type and mutant lid, ~50 nM in FLAG buffer (50 mM HEPES, pH7.6, 100 mM NaCl, 100 mM KCl), 2% uranyl formate; 2D class averages and 3D reconstructions at 19.6-27.3 Å; both purified

- binding [1]: binds
Molecule: Rpn11 (from UniProt P43588 1-306) (enzyme)

- binding [2]: binds
- binding [3]: binds
B1: Rpn8 (protein, UniProt Q08723 1-338)
chain: T1 sequence

- binding [4]: binds
- binding [5]: binds
B2: Rpn5 (natural protein, S. cerevisiae (yeast))
chain: MSRDAPIKADKDYSQILKEEFPKIDSLAQNDCNSALDQLLVLEKKTRQASDLASSKEVLAKIVDLLASRNKWDDLNEQLTLLSKKHGQLKLSIQYMIQKVMEYLKSSKSLDLNTRISVIETIRVVTENKIFVEVERARVTKDLVEIKKEEGKIDEAADILCELQVETYGSMEMSEKIQFILEQMELSILKGDYSQATVLSRKILKKTFKNPKYESLKLEYYNLLVKISLHKREYLEVAQYLQEIYQTDAIKSDEAKWKPVLSHIVYFLVLSPYGNLQNDLIHKIQNDNNLKKLESQESLVKLFTTNELMRWPIVQKTYEPVLNEDDLAFGGEANKHHWEDLQKRVIEHNLRVISEYYSRITLLRLNELLDLTESQTETYISDLVNQGIIYAKVNRPAKIVNFEKPKNSSQLLNEWSHNVDELLEHIETIGHLITKEEIMHGLQAK
